# Reference: the supplement of paper PMC8007513
# The other results are listed elsewhere or left out. Many values rest on one well or one pass, so single values are uncertain.
# Test system: Saccharomyces cerevisiae BY4743
# Assay: growth (OD600) relative to untreated control; higher = less growth inhibition
# Conditions: compound concentration: 133 uM; 20 h
# Method: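 NMCCC compounds (133 uM, no IPBC) tested alone against Saccharomyces cerevisiae BY4743 in YPD, 96-well plates, starting OD600 ~0.1. Growth was read as OD600 at 20 h and expressed as % of the untreated control. Single pass.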
row,Structure (SMILES),growth [%]
1,O=C(NC1(C(F)(F)F)NC(=O)N(Cc2ccncc2)C1=O)c1ccccc1 (stereo unspecified),103
2,Cc1nc(NC(=O)CSc2nncn2C2CC2)sc1C,102
3,COC(=O)CNC(=O)CSc1nnc(-c2ccccc2C)n1-c1ccccc1,90.6
4,Cc1sc(NC(=O)CSc2ncnc3ccccc23)c(C#N)c1C,94.7
5,O=C(Nc1nc[nH]n1)c1ccc(C(F)(F)F)cn1,103
6,O=S(=O)(NC1CCCCCC1)c1ccc(-c2ccno2)s1,92.9
